SMILES strings stand for the structures.

The data set relates to L929 (Fibroblast cells). The data set is described as follows: In-vitro cytotoxic effect on cultured L929 cells (MTT assay). Type of data set: cell-based. The following applies: 24 hours. As for the experimental part:
Cultures of L929 (Fibroblast cells) were maintained in Dulbecco's modified eagles media supplemented with 10% fetal bovine serum (FBS) and grown to confluence at 37° C. and 5% CO2 in a humidified atmosphere using a CO2 incubator. The cells were trypsinised (500 μL of 0.025% Trypsin in PBS/0.5 mM Ethylene diamine tetraacetic acid (EDTA) solution for 2 minutes and passed to T flasks under complete aseptic conditions. Test compounds were added to grown cells at a final concentration of 6.25, 12.5, 25, 50 and 100 μg/mL from a stock of 1 mg/mL and incubated for 24 hours. The percentage difference in viability was determined by standard MTT assay after 24 hours of incubation. The MTT assay is a colorimetric assay for assessing cell metabolic activity. NAD (P) H-dependent cellular oxidoreductase enzymes under defined conditions, reflect the number of viable cells present.
Viability percentage was calculated using the Formula, % viability=(OD of Test/OD of control)×100, • where control OD was 0.993.

For the compound `CC(C)[C@H](O)C(=O)/C(O)=C/[C@@H](N)/C=C\CCCC[C@H]1C=C[C@@H](O)C=C1` [Compound of Formula II, (3S,5Z,7S,8Z)-7-amino-3,5-dihydroxy-2-methyl-13-[(1s,4s)-4-hydroxycyclohexa-2,5-dien-1-yl]trideca-5,8-dien-4-one], the “Average Absorbance @ 540 nm” value turned out to be 0.901 (L929, 6.25 μg/mL); 0.852 (L929, 12.5 μg/mL); 0.741 (L929, 25 μg/mL); 0.638 (L929, 50 μg/mL); 0.554 (L929, 100 μg/mL).

The values are drawn from patent US10851043B1, “Compound for fatty acid synthase inhibition” (KANNUR UNIVERSITY, priority 2019, dated 2020).
